Test results from patent publication US12215460B2, “Methods of microbial control” (Clean Chemistry, Inc., priority 2015, dated 2025).

Columns and labels:
[1] = continuous exposure to lower concentrations
[2] = Bleaching of Kraft pulp, hand sheet tests; conditions: for Kappa No.: unbleached pulp 30

Structure (SMILES)	increase of corrosion rate on steel on increasing temperature to 140 F [1]	corrosion rate on steel relative to peracetate oxidant ([1]; room temperature)	Kappa No. ([2]; Entry 2, bleach time 30 min, 1.13 g/L PAA equiv., initial pH 8.2)	Kappa No. ([2]; Entry 7, 30 min, 4.0 g/L, initial pH 7.0)	Kappa No. ([2]; Entry 9, 30 min, 4.0 g/L, initial pH 8.9)	Kappa unit reduction (bleaching efficiency) ([2]; hand sheet tests, initial pulp Kappa number 30)
[O][Cl+][O-] [chlorine dioxide]	doubled	1.7 to 2.1 times	22	–	–	–
CC(=O)OO [peracetic acid]	quadrupled	–	–	31	29	only up to one Kappa unit reduction
